HELM strings list residues between dots; [ac] is acetyl, [am] amide, other brackets name non-standard units. Square brackets hold non-standard residues; d marks the D form. Ends that are not written are not given here. * marks the point of attachment. Tos = Cc1ccc(S(=O)(=O)*)cc1; Nle = CCCC[C@H](N)C(=O)O; OPac = O=C(CO*)c1ccccc1; Boc = CC(C)(C)OC(=O)*; OcHex = C1CCC(O*)CC1; Meb = Cc1ccc(C*)cc1; OBn = c1ccc(CO*)cc1; Bn = c1ccc(C*)cc1
Experiment: general procedure: solution-phase peptide synthesis; WSCI/HOBt

| Substance | step yield (coupling step) [%] | also measured |
| --- | --- | --- |
| Boc-Ser(Bzl)PheArg(Tos)Tyr(Cl2 Bzl)OBzl | 85.5 |  |
| Boc-Cys(4-MeBzl)PheGlyGlyArg(Tos)MetAsp(OBzl)Arg(Tos)IleGlyAlaGlnSer(Bzl)GlyLeuGlyCys(4-MeBzl)AsnSer(OBzl)PheArg (2Bzl)-OBzl | 91.6 |  |
| Z-Cys(4-CH3 Bzl)-Phe-D-Ala-Gly-OH | 72.4 |  |
| Boc-C(Meb)FGG-OH |  | step yield (late stage modification step): 87.3% |
| Boc-Cys(4-CH3 Bzl)-Phe-Gly-Gly-Arg(Tos)-Met-D-Asp(OBzl)-Arg(Tos)-Ile -Gly-Ala-Gln-Ser(Bzl)-Gly-Leu-Gly-Cys(4-CH3 Bzl)-Asn-Ser(Bzl)-Phe-Arg(Tos)Tyr(Cl2 Bzl)-OBzl | 94.5 |  |
| Boc-Arg(Tos)NleAsp(OBzl)Arg(Tos)-IleGlyAlaGlnSer(Bzl)GlyLeuGlyCys(4-MeBzl)-AsnSer(Bzl)PheArg(Tos)Tyr(OBzl)-OBzl | 93.4 |  |
| Boc-Arg(Tos)MetAsp(OBzl)Arg(Tos)IleGlylAaGlnSer(Bzl)GlyLeuGlyCys(4-MeBzl)AsnSer(Bzl)PheArg(Tos)-OBzl | 91.2 |  |
| Boc-Ala-Gln-Ser(Bzl)-Gly-Leu-Gly-Asu(OH)-Asn-Ser(Bzl)-Phe-Arg(Tos)-Tyr(Cl2 Bzl)-OBzl |  | step yield (late stage modification step): 86% |
| Boc-AsnSer(Bzl)PheArg(Tos)Tyr(Cl2 Bzl)-OBzl | 90.9 |  |
| PEPTIDE1{C.F.G.R.M.D.R.I.G.A.Q.S.G.L.G.C.N.S.F.R.Y}$PEPTIDE1,PEPTIDE1,1:R3-16:R3$$$V2.0 | 98 |  |
| Boc-AlaGlnSer(Bzl)GlyLeuGlyCys(4-MeBzl)AsnSer(Bzl) PheArg(Tos)Tyr(Cl2 Bzl)-OBzl | 93.9 |  |
| Boc-Cys(4-MeBzl)AsnSer(Bzl)PheArg(Tos)Tyr(Cl2 Bzl)-OBzl | 95.4 |  |
| Boc-Arg(Tos)MetAsp(OBzl)Arg(Tos)Ile-GlyAlaGlnSer(Bzl)GlyLeuGlyCys(4-MeBzl)AsnSer-(Bzl)-OBzl(11-25) | 94 |  |
| Boc-FGGR(Tos)[Nle]D(OBn)R(Tos)IG-OPac | 79 |  |
| Boc-Ser(Bzl)LeuArg(Tos)Arg(Tos) Ser(Bzl)SerCys(4-MeBzl)PheGlyGlyArg(Tos)Met Asp(OBzl)Arg(Tos)IleGlyAlaGlnSer(Bzl)GlyLeuGly Cys(4-MeBzl)AsnSer(Bzl)PheArg(Tos) Tyr (Cl2 Bzl)-OBzl | 96.5 |  |
| PEPTIDE1{S.L.R.R.S.S.C.F.G.G.R.[Met(O)].D.R.I.G.A.Q.S.G.L.G.C.N.S.F.R.Y}$PEPTIDE1,PEPTIDE1,7:R3-23:R3$$$V2.0 | 96.5 |  |
| Boc-R(Tos)S(Bn)S(Bn)C(Meb)FGG-OPac | 92.9 |  |
| Boc-LR(Tos)R(Tos)S(Bn)S(Bn)C(Meb)FGG-OPac | 92.2 |  |
| PEPTIDE1{F.G.G.R.M.D.R.I.G.A.Q.S.G.L.G.[Asu].N.S.F.R.Y}$PEPTIDE1,PEPTIDE1,1:R1-16:R3$$$V2.0 | 92.5 | step yield (late stage modification step): 13% |

| Substance | step yield (coupling step) [%] | also measured |
| --- | --- | --- |
| PEPTIDE1{F.G.G.R.[Nle].D.R.I.G.A.Q.S.G.L.G.[Asu].N.S.F.R.Y}$PEPTIDE1,PEPTIDE1,1:R1-16:R3$$$V2.0 | 94 |  |
| Boc-S(Bn)S(Bn)C(Meb)FGG-OPac | 91.7 |  |
| Boc-R(Tos)MD(OBn)R(Tos)IG-OH |  | step yield (late stage modification step): 96% |
| Boc-AlaGlnSer(Bzl)GlnLeuGlyAsu(OPac)-OBzl | 88 |  |
| Boc-[Nle]D(OBn)R(Tos)IG-OPac | 83 |  |
| Boc-S(Bn)LR(Tos)R(Tos)S(Bn)S(Bn)C(Meb)FGG-OH |  | step yield (late stage modification step): 82.1% |
| Boc-Ala-Gln-Ser(Bzl)-Gly-Leu-Gly-Asu[Phe-Gly-Gly-Arg(Tos)-Met-Asp(OChx)-Arg(Tos)-Ile-Gly-OH]-Asn-Ser(Bzl)-Phe-Arg(Tos)-Tyr(Cl2Bzl)-OBzl |  | step yield (late stage modification step): 95% |
| Boc-Ala-Gln-Ser(Bzl)-Gly-Leu-GlyAsu[Phe-Gly-Gly-Arg(Tos)-Nle-Asp(OBzl)-Arg(Tos)-Ile-Gly-OPac]-Asn-Ser(Bzl)-Phe-Arg(Tos)-Tyr(Cl2 Bzl)-OBzl | 85 |  |
| Boc-Ser(Bzl)Ser(Bzl)Cys(4-MeBzl)PheGlyGlyArg(Tos)MetAsp(OBzl)Arg(Tos) IleGlyAlaGlnSer(Bzl)-GlyLeuGlyCys(4-MeBzl)AsnSer(Bzl)PheArg(Tos)Tyr(Cl2 Bzl)-OBzl | 91.3 |  |
| Boc-Ala-Gln-Ser(Bzl)-Gly-Leu-Gly-Asu[Phe-Gly-Gly-Arg(Tos)-Nle-Asp(OBzl)-Arg(Tos)-Ile-GlyOH]-Asn-Ser(Bzl)-Phe-Arg(Tos)-Tyr(Cl2 Bzl)-OBzl |  | step yield (late stage modification step): 89% |
| Boc-Cys(4-CH3 Bzl)-Phe-Gly-Gly-Arg(Tos)-Met-D-Asp(OBzl)-Arg(Tos)-Ile-Gly-OPac | 81.9 |  |
| Boc-PheGlyGlyaAg(Tos)MetAsp(OBzl)Arg(Tos)IleGlyAlaGlnSer(Bzl)GlyLeuGlyAsu (OPac)-OBzl | 92 |  |
| Boc-Ala-Gln-Ser(Bzl)Gly-Leu-Gly-Asu(OPac)-Asn-Ser(Bzl)-Phe-Arg(Tos)-Tyr(Cl2 Bzl)-OBzl | 68 |  |
| PEPTIDE1{F.G.G.R.M.D.R.I.G.A.Q.S.G.L.G.[Asu]}$PEPTIDE1,PEPTIDE1,1:R1-16:R3$$$V2.0 | 75.4 |  |
| Boc-R(Tos)R(Tos)S(Bn)S(Bn)C(Meb)FGG-OPac | 88.6 |  |
| Boc-R(Tos)[Nle]D(OBn)R | 91 |  |
| PEPTIDE1{S.S.C.F.G.G.R.M.D.R.I.G.A.Q.S.G.L.G.C.N.S}$PEPTIDE1,PEPTIDE1,3:R3-19:R3$$$V2.0 | 90.3 | isolated yield (whole synthesis): 10.3% |
| Boc-AlaGlnSer(Bzl)GlyLeuGlyCys(4-MeBzl)AsnSer(Bzl)-OBzl (17-25) | 96 |  |
| Boc-[dD](OBn)R(Tos)IG-OPac | 86.6 |  |

| Substance | step yield (coupling step) [%] | also measured |
| --- | --- | --- |
| Boc-S(Bn)LR(Tos)R(Tos)S(Bn)S(Bn)C(Meb)FGG-OPac | 91.8 |  |
| Boc-Ser(Bzl)Cys(4-Bzl)PheGlyGly-OPac | 80.7 |  |
| Boc-FGGR(Tos)MD(OcHex)R(Tos)IG-OPac | 92 |  |
| Boc-PheGlyGlyArg(Tos)MetAsp(OBzl)Arg(Tos)IleGlyAlaGlnSer(Bzl)GlyLeuGly-Asu(OH)-OBzl |  | difficulty met (late stage modification step): The compound obtained by changing Met to Met(O) is much involved in the product (about 30%) |
| PEPTIDE1{C.F.G.G.R.M.[dD].R.I.G.A.Q.S.G.L.G.C.N.S.F.R.Y}$PEPTIDE1,PEPTIDE1,1:R3-17:R3$$$V2.0 | 95 |  |
| Boc-Arg(Tos)MetAsp(OBzl)Arg (Tos)IleGlyAlaGlnSer(Bzl)GlyLeuGlyCys(4-MeBzl)AsnSer(Bzl)PheArg(Tos)Tyr(Cl2 Bzl)-OBzl | 97.9 |  |
| Boc-C(Meb)FGG-OPac | 80.1 |  |
| Boc-Arg(Tos)MetAsp(OBzl)Arg(Tos)IleGlyAlaGlnSer(Bzl)GlyLeuGlyAsu(OPac)-OBz | 86 |  |
| Boc-Ser(Bzl)LeuArg(Tos)Arg(Tos)Ser(Bzl)Ser(Bzl)Cys(4-MeBzl)PheGlyGlyArg(Tos)NleAsp(OBzl)Arg(Tos)IleGlyAlaGlnSer(Bzl)GlyLeuGlyCys(4MeBzl)AsnSer(Bzl)PheArg(Tos)Tyr(OBzl)-OBzl | 92.9 |  |
| Boc-Cys(4-CH3 Bzl)-Phe-Gly-Gly-Arg(Tos)-Met-D-Asp(OBzl)-Arg(Tos)-Ile-Gly-OH |  | step yield (late stage modification step): 78.9% |
| Boc-M[dD](OBn)R(Tos)IG-OPac | 84.2 |  |
| Boc-Ser(Bzl)Ser(Bzl)Cys(4-MeBZL)PheGlyGly-OH |  | step yield (late stage modification step): 95.5% |
| Boc-NS(Bn)FR(Tos)-OBn | 84.9 |  |
| Boc-R(Tos)MD(OBn)R(Tos)IG-OPac | 94 |  |
| Boc-R(Tos)M[dD](OBn)R(Tos)IG-OPac | 64.7 |  |
| Boc-Ser(Bzl)Ser(Bzl)Cys (4-MeBzl)Phe-GlyGlyArg(Tos)MetAsp(OBzl)Arg(Tos)IleGly-AlaGlnSer(Bzl)GlyLeuGlyCys(4MeBzyl) AsnSer(Bzl)PheArg(Tos)-OBzl | 80.5 |  |
| Boc-Ala-Gln-Ser(Bzl)-Gly-Leu-Gly-Asu[Phe-Gly-Gly-Arg(Tos)-Met-Asp(OChx)-Arg(Tos)-Ile-Gly-OPac]-Asn-Ser(Bzl)-Phe-Arg(Tos)-Tyr(Cl2Bzl)-OBzl | 81 |  |
| Boc-Arg(Tos)-Ser(Bzl)-Ser(Bzl)-Cys(4-CH3 Bzl)-Phe-Gly-Gly-OH |  | step yield (late stage modification step): 82.0% |

— patent publication US4670540A (Ajinomoto Co., Inc., priority 1984, dated 1987)
